In patent US12508322B2, “MIR-145 micelles for mitigating atherosclerosis” (University of Southern California, priority 2021, dated 2025):
At least one compound was matched to its structure with a doubt left.

System: hASMCs
Experiment: miR-145 micelles + statin combination in cholesterol loaded hASMCs (qRT-PCR)
Type: cell-based, human
Details: statin 250 nM 24 hours or micelles 25 uM 4 hours

Q: How did the “IL-1B and TNF-a expression” value turn out when `CCC(C)(C)C(=O)O[C@H]1C[C@@H](C)C=C2C=C[C@H](C)[C@H](CC[C@@H]3C[C@@H](O)CC(=O)O3)[C@H]21` [Statin, simvastatin] was run?
A: The value was “reduce IL-1B and TNF-a to similar levels”.
